The other results are listed elsewhere or left out.
How the values were obtained:
Experiment in all cases: log2 fold change, soluble protein after heating vs DMSO (PISA); higher = thermal stabilisation; K562 cells, 10 uM, 30 min; active = over 0.2 and 3.5 SD of the protein, either way, in both replicates (recomputed)
[1] = compound: C1=CC=C(C=C1)[C@H](COC2=CC3=C(C=C2)NC(=O)N3)NC(=O)C4=CC=CN(C4=O)CC5=CC(=C(C=C5)F)F
How it was run: (§1)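 K562 cells at 2×10^6 cells/mL were given 10 μM compound for 30 min. Aliquots then went through 3 min of heating across 48°C-58°C, were pooled, and were extracted in PBS with 0.5% NP-40 at 4°C, and the supernatant after 21,000xg for 90 min was quantified by TMTpro 16plex LC-MS/MS with channel sums equalised. Thermal stability relative to control samples, from duplicates, is given as log2 fold change.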

Protein sequences, listed by entry. Tags and fused reporters are not part of them. Lines headed by an entry give the natural chain unless they say otherwise; changes in a name come on top.
UniProt Q9H6K4: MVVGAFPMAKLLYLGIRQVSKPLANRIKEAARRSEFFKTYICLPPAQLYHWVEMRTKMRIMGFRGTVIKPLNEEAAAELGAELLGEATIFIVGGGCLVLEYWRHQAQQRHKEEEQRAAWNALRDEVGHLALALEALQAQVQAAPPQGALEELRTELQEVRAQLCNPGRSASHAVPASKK
UniProt P0C025: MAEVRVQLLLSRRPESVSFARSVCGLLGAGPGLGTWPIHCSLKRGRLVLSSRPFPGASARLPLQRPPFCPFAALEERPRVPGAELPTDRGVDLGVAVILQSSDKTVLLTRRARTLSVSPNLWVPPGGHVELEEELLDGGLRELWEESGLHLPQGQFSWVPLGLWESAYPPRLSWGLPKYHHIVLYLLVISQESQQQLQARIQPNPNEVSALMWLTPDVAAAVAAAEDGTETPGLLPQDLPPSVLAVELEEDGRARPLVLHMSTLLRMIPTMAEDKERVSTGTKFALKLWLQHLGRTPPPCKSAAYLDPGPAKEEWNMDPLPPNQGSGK
UniProt O75694: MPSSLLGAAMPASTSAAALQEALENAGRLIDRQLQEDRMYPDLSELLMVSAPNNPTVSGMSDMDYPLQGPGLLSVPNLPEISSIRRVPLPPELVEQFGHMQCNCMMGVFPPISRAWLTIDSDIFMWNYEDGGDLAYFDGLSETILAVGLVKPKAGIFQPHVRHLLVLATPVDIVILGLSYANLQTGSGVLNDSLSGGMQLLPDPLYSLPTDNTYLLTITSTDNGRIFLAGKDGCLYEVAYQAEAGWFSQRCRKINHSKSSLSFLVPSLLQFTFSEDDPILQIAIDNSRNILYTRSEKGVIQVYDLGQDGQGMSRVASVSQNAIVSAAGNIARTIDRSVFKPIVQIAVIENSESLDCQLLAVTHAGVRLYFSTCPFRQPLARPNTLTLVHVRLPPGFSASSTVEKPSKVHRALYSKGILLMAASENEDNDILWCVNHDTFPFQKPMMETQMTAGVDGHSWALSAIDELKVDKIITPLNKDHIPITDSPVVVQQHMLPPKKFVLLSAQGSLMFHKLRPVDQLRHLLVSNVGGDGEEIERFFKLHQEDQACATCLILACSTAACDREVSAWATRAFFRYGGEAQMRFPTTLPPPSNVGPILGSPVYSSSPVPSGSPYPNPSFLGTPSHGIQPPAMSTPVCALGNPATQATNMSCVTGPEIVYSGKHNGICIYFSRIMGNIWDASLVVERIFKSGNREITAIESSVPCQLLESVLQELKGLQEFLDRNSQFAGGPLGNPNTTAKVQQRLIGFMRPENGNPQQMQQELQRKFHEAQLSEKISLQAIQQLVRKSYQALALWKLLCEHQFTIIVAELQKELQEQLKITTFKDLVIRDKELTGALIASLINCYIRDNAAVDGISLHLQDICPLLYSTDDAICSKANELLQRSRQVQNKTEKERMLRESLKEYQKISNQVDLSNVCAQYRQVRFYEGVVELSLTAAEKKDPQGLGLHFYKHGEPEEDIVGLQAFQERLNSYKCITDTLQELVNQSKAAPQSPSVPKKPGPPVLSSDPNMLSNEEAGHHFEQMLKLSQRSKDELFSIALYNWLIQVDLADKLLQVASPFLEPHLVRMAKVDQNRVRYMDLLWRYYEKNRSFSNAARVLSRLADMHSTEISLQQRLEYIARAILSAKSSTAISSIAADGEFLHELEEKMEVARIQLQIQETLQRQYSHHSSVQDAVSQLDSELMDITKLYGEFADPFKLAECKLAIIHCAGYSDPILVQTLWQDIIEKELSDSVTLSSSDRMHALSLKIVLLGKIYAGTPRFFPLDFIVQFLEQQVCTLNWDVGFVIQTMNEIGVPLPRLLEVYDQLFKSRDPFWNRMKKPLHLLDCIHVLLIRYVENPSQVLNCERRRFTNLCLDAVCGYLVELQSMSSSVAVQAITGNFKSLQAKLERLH
UniProt Q96E52: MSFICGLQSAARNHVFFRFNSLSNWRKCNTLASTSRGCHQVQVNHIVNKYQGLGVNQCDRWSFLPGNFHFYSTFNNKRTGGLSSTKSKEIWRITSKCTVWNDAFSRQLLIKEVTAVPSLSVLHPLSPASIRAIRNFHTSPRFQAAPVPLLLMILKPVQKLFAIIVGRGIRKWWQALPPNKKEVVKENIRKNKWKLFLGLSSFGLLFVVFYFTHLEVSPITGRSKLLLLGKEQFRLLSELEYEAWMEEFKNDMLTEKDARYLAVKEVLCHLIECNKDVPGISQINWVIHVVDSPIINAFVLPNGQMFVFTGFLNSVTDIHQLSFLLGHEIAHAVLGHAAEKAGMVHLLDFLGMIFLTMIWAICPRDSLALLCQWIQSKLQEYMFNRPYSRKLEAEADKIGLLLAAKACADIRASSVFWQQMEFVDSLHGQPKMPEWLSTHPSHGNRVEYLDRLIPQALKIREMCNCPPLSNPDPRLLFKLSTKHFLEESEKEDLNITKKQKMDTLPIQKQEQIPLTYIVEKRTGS
UniProt Q5TFE4: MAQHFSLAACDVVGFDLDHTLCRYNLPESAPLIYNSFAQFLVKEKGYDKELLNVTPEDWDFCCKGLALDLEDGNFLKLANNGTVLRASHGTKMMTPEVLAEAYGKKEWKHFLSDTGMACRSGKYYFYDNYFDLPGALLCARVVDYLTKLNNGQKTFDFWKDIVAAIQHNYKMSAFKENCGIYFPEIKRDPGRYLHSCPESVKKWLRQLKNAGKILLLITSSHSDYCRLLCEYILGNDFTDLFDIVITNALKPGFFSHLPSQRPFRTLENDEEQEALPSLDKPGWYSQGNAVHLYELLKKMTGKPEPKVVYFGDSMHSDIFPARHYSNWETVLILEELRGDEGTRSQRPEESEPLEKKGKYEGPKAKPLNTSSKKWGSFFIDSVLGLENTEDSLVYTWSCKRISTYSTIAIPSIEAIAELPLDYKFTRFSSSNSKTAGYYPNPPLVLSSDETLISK
UniProt Q9H1E3: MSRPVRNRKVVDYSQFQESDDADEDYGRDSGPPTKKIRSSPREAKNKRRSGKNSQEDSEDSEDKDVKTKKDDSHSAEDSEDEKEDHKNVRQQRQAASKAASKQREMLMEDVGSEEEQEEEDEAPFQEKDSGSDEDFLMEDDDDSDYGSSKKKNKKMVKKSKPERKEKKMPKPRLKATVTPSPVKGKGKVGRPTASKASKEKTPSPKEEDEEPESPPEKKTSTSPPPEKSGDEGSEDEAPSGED
UniProt Q96MG7: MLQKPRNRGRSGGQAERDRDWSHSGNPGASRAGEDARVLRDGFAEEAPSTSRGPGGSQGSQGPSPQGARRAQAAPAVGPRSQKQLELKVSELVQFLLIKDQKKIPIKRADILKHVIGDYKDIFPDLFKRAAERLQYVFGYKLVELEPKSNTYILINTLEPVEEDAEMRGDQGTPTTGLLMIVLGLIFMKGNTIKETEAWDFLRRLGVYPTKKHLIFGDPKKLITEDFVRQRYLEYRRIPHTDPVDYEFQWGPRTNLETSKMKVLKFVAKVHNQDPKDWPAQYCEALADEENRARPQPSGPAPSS
UniProt Q9UKX7: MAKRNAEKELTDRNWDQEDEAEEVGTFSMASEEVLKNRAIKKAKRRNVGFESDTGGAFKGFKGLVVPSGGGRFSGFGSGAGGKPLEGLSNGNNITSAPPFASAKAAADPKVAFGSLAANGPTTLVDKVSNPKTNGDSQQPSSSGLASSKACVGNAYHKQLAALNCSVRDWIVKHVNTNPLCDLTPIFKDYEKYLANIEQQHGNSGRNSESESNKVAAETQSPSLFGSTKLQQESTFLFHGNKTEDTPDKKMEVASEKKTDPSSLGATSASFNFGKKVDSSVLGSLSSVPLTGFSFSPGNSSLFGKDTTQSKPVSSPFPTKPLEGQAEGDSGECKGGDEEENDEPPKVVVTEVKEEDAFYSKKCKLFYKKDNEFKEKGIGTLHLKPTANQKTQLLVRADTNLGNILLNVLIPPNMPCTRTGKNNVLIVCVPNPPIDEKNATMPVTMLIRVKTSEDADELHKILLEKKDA
UniProt Q6PK18: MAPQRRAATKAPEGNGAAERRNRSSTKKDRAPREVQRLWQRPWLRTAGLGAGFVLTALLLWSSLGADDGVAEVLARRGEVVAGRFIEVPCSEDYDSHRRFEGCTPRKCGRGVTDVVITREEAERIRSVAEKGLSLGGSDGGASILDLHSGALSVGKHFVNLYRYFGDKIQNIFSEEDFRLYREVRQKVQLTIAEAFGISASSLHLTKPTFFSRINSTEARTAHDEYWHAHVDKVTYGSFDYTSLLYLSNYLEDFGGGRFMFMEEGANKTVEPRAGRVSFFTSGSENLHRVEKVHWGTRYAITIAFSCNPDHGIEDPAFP
UniProt Q86WC4: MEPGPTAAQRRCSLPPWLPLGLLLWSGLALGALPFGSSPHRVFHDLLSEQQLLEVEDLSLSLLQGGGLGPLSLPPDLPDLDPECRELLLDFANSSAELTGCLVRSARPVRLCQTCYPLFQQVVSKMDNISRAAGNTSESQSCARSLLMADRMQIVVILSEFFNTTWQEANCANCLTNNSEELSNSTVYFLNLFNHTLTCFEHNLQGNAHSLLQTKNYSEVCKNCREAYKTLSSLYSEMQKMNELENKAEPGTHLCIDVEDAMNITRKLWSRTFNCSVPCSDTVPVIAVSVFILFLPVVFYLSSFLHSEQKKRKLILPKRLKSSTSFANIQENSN
UniProt Q8NFH4: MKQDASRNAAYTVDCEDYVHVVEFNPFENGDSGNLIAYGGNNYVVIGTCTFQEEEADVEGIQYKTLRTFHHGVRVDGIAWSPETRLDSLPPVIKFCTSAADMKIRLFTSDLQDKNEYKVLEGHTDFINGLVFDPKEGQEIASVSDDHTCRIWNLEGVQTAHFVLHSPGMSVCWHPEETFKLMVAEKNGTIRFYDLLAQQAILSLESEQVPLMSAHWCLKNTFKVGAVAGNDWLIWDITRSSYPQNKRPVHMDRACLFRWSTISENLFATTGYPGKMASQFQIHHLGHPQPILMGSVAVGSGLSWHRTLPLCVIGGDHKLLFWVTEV
UniProt Q96CV9, whole entry, looked up: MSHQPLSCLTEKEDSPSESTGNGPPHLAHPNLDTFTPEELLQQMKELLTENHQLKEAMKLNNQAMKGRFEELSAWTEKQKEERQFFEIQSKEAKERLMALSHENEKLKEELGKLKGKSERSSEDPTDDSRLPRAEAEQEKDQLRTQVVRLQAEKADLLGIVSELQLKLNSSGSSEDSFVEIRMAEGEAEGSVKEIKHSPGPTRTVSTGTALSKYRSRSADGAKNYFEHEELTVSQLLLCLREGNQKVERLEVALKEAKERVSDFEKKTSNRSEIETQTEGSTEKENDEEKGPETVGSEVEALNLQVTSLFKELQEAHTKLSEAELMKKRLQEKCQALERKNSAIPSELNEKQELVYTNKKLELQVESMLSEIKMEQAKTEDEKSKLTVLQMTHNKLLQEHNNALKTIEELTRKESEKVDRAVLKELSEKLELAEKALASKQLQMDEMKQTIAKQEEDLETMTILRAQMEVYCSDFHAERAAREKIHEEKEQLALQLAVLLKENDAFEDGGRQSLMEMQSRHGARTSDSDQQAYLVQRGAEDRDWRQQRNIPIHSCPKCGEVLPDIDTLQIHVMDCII
UniProt Q13438: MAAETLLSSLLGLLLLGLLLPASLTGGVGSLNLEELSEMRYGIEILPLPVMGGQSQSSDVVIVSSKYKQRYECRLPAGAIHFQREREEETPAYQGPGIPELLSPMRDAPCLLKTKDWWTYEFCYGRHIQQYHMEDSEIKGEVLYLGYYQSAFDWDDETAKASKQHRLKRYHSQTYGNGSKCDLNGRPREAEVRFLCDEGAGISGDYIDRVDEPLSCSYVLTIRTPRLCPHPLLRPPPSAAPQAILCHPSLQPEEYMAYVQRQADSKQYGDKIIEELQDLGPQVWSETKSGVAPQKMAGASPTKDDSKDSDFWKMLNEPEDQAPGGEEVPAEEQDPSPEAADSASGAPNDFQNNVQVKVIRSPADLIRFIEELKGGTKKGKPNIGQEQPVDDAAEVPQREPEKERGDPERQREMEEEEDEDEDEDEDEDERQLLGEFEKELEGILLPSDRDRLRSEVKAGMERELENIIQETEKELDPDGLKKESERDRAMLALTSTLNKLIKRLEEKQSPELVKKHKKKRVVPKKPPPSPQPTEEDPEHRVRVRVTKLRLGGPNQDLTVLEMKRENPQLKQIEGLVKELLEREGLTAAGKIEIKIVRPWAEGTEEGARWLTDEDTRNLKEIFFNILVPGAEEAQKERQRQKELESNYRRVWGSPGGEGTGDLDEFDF
UniProt Q6N063: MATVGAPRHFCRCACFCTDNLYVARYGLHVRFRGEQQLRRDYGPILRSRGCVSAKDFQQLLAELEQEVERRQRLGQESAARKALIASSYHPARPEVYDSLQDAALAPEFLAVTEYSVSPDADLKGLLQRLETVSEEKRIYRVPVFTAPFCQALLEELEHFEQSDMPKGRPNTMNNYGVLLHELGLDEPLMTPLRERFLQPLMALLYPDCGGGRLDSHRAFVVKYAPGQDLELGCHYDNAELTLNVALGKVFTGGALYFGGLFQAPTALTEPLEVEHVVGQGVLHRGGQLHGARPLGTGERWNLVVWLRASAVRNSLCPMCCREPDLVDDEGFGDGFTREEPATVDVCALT

[2] = compound: CC1=C(SC2=C1C(=N[C@H](C3=NN=C(N32)C)CC(=O)N)C4=CC=C(C=C4)Cl)C
How it was run: as §1

[3] = compound: CC1=C2C(=CC=C1)N=C(N(C2=O)C3=CC=CC=C3C)CN4C=NC5=C(N=CN=C54)N
How it was run: as §1

[4] = compound: Cc1sc2c(c1C)C(c1ccc(Cl)cc1)=N[C@@H](CC(=O)OC(C)(C)C)c1nnc(C)n1-2
How it was run: as §1

[5] = compound: c1ccc([C@@H]2C[C@H]2NC2CCNCC2)cc1
How it was run: as §1

Measured: log2 fold change

OPA3 (UniProt Q9H6K4)
inactive: [1] -0.044 | [2] -0.045 | [3] 0.083 | [4] 0.057 | [5] 0.067

NUP93 (UniProt Q8N1F7)
inactive: [1] -0.076 | [2] 0.001 | [3] 0.053 | [4] -0.013 | [5] -0.026

NSUN2 (UniProt Q08J23)
inactive: [1] -0.019 | [2] 0.023 | [3] 0.003 | [4] 0 | [5] 0.003

NUDT15 (UniProt Q9NV35)
inactive: [1] 0.029 | [2] 0.07 | [3] -0.005 | [4] -0.024 | [5] -0.024

NUDT17 (UniProt P0C025)
inactive: [1] 0.336 | [2] 0.058 | [3] -0.066 | [4] -0.186 | [5] -0.103

NUBP1 (UniProt P53384)
inactive: [1] -0.053 | [2] 0.08 | [3] 0.078 | [4] -0.021 | [5] -0.055

OGFR (UniProt Q9NZT2)
inactive: [1] -0.016 | [2] -0.057 | [3] 0.016 | [4] 0.095 | [5] -0.046

NUDT21 (UniProt O43809)
inactive: [1] 0.013 | [2] 0.021 | [3] 0.011 | [4] -0.01 | [5] 0.001

ORC5 (UniProt O43913)
inactive: [1] -0.081 | [2] 0.02 | [3] 0.144 | [4] -0.016 | [5] -0.044

NUP85 (UniProt Q9BW27)
inactive: [1] -0.009 | [2] -0.018 | [3] 0.042 | [4] -0.004 | [5] 0.019

OXSR1 (UniProt O95747)
inactive: [1] -0.039 | [2] 0.048 | [3] 0.096 | [4] -0.003 | [5] -0.03

NUDCD1 (UniProt Q96RS6)
inactive: [1] -0.033 | [2] 0.026 | [3] 0.086 | [4] -0.016 | [5] -0.036

OPLAH (UniProt O14841)
inactive: [1] 0.004 | [2] 0.059 | [3] 0.077 | [4] -0.017 | [5] -0.011

NUP155 (UniProt O75694)
inactive: [1] -0.088 | [2] 0.114 | [3] 0.024 | [4] -0.024 | [5] -0.043

NUDT16L1 (UniProt Q9BRJ7)
inactive: [1] -0.067 | [2] 0.032 | [3] 0.006 | [4] 0.049 | [5] -0.01

NUDT3 (UniProt O95989)
inactive: [1] 0.009 | [2] 0.039 | [3] 0.037 | [4] 0.039 | [5] 0.062

NSUN7 (UniProt Q8NE18)
inactive: [1] -0.03 | [2] 0.068 | [3] 0.112 | [4] 0.181 | [5] -0.03

OMA1 (UniProt Q96E52)
inactive: [1] -0.012 | [2] -0.051 | [3] 0.028 | [4] -0.055 | [5] -0.015

NT5DC1 (UniProt Q5TFE4)
inactive: [1] -0.036 | [2] 0.075 | [3] 0.006 | [4] 0.021 | [5] 0.011

NUS1 (UniProt Q96E22)
inactive: [1] 0.075 | [2] -0.06 | [3] 0.063 | [4] -0.084 | [5] 0.03

NUCKS1 (UniProt Q9H1E3)
inactive: [1] 0.044 | [2] -0.053 | [3] 0.032 | [4] -0.029 | [5] -0.007

NUDT16 (UniProt Q96DE0)
inactive: [1] 0.029 | [2] 0.085 | [3] -0.045 | [4] -0.075 | [5] -0.006

OSTC (UniProt Q9NRP0)
inactive: [1] -0.031 | [2] 0.048 | [3] 0.063 | [4] -0.213 | [5] 0.048

Two records picked at random from the list so far:
NSUN7 (UniProt Q8NE18)
inactive: [1] -0.03 | [2] 0.068 | [3] 0.112 | [4] 0.181 | [5] -0.03

OMA1 (UniProt Q96E52)
inactive: [1] -0.012 | [2] -0.051 | [3] 0.028 | [4] -0.055 | [5] -0.015

Following part

NSMCE3 (UniProt Q96MG7)
inactive: [1] 0.046 | [2] -0.014 | [3] 0.09 | [4] 0.072 | [5] -0.029

NUP50 (UniProt Q9UKX7)
inactive: [1] 0.027 | [2] 0.035 | [3] -0.038 | [4] 0.044 | [5] 0.002

NUB1 (UniProt Q9Y5A7)
inactive: [1] -0.092 | [2] 0.055 | [3] 0.192 | [4] 0.095 | [5] 0.103

NUDT9 (UniProt Q9BW91)
inactive: [1] 0.028 | [2] 0.004 | [3] 0.089 | [4] 0.041 | [5] -0.002

OTUD6B (UniProt Q8N6M0)
inactive: [1] -0.051 | [2] 0.022 | [3] 0.11 | [4] 0.03 | [5] -0.153

OGFOD3 isoform 2 (UniProt Q6PK18)
inactive: [1] 0.081 | [2] -0.043 | [3] -0.011 | [4] -0.002 | [5] -0.071

OXNAD1 (UniProt Q96HP4)
inactive: [1] 0.092 | [2] -0.031 | [3] 0.006 | [4] 0.002 | [5] -0.066

NUP153 (UniProt P49790)
inactive: [1] 0.025 | [2] 0.02 | [3] -0.035 | [4] 0.046 | [5] 0.048

PAAT (UniProt Q9H8K7)
inactive: [1] -0.166 | [2] 0.055 | [3] -0.007 | [4] 0.125 | [5] 0.013

OSTM1 (UniProt Q86WC4)
inactive: [1] 0.023 | [2] 0.036 | [3] 0.058 | [4] -0.091 | [5] -0.013

NSUN5 isoform 2 (UniProt Q96P11)
inactive: [1] -0.075 | [2] -0.04 | [3] -0.115 | [4] -0.057 | [5] 0.079

NTPCR (UniProt Q9BSD7)
inactive: [1] -0.059 | [2] 0.042 | [3] 0.034 | [4] 0.002 | [5] -0.054

OGDH (UniProt Q02218)
inactive: [1] -0.033 | [2] -0.005 | [3] -0.029 | [4] -0.027 | [5] -0.026

NUP98 (UniProt P52948)
inactive: [1] -0.041 | [2] 0.032 | [3] 0.071 | [4] -0.005 | [5] -0.011

OLA1 (UniProt Q9NTK5)
inactive: [1] -0.004 | [2] 0.054 | [3] 0.027 | [4] -0.012 | [5] 0.022

NUDT5 (UniProt C9JYY9)
inactive: [1] -0.18 | [2] 0.02 | [3] 0.132 | [4] -0.209 | [5] 0

NUP37 (UniProt Q8NFH4)
inactive: [1] -0.033 | [2] 0.049 | [3] 0.022 | [4] -0.02 | [5] 0.052

OPA1 isoform 2 (UniProt O60313)
inactive: [1] -0.054 | [2] 0.028 | [3] 0.021 | [4] -0.03 | [5] -0.037

OGN (UniProt P20774)
inactive: [1] -0.147 | [2] -0.058 | [3] 0.075 | [4] 0.045 | [5] -0.377

NUDCD2 (UniProt Q8WVJ2)
inactive: [1] -0.037 | [2] 0.113 | [3] 0.099 | [4] 0.017 | [5] 0.037

OARD1 (UniProt Q9Y530)
inactive: [1] -0.059 | [2] 0.037 | [3] 0.104 | [4] -0.02 | [5] -0.003

OTUB1 (UniProt Q96FW1)
inactive: [1] -0.012 | [2] 0.043 | [3] 0.007 | [4] -0.021 | [5] -0.002

NUP35 (UniProt Q8NFH5)
inactive: [1] -0.094 | [2] -0.008 | [3] 0.012 | [4] 0.044 | [5] 0.051

NSMCE4A (UniProt Q9NXX6)
inactive: [1] 0.123 | [2] 0.03 | [3] -0.088 | [4] -0.037 | [5] -0.014

OPTN (UniProt Q96CV9)
inactive: [1] 0.02 | [2] 0.007 | [3] 0.061 | [4] 0.057 | [5] 0.071

P4HB (UniProt P07237)
inactive: [1] -0.003 | [2] -0.009 | [3] -0.015 | [4] 0.011 | [5] 0.038

NUDT1 (UniProt P36639)
inactive: [1] 0.556 | [2] -0.043 | [3] 0.048 | [4] -0.137 | [5] 0.038

OS9 (UniProt Q13438)
inactive: [1] 0.062 | [2] -0.01 | [3] 0.017 | [4] 0.005 | [5] -0.001

OGFOD2 (UniProt Q6N063)
inactive: [1] 0.124 | [2] 0.097 | [3] 0.024 | [4] 0.091 | [5] 0.053

NUBP2 (UniProt Q9Y5Y2)
inactive: [1] -0.011 | [2] 0.063 | [3] 0.03 | [4] 0.004 | [5] -0.049
